Measurements published in patent publication US8617819B2, “Polymers for analyte detection” (Massachusetts Institute of Technology, priority 2004, dated 2013).
At least one structure is not confirmed: it was looked up by name or label, or the drawing left a doubt.

Assay: Stern-Volmer quenching of polymer 1 by streptavidin-free dyes
Assay type: binding
Details: free dye added to polymer 1, 50 mM Tris buffer pH 7.4
Method: This mechanism generally requires fairly close proximity between the donor and acceptor chromophores. To study these interactions, the Stern-Volmer (KSV) quenching constants were determined from fluorescence emission and lifetime measurements in 50 mM Tris buffer at pH 7.4. Upon the addition of the streptavidin-free fluorescent dyes (fluorescein, RhB, and sulforhodamine 101, the Texas Red™ parent dye) to polymer 1, the apparent KSV values were determined to be 26,300 M^−1, 91,800 M^−1 and 97,900 M^−1, respectively. […] The dyes therefore may have an inherent affinity for the conjugated polymer backbone. A more planar conformation and greater hydrophobic character for Texas Red™, compared to RhB and fluorescein, may permit better stacking and orbital interaction with the CP backbone, allowing for greater DET. In the case of dye-labeled streptavidin, biological recognition first may bring the dyes into closer proximity with the polymer. Conformational and hydrophobic characteristics of the dyes then may tailor the extent of orbital mixing with the polymer: the flatter Texas Red™ may interact more intimately with the planar conjugated polymer backbone then the other dyes. This may favor DET and can explain the better ET that was observed, even at decreased spectral overlap between the CP donor and dye acceptor.

Structure (SMILES): O=C1OC2(c3ccc(O)cc3Oc3cc(O)ccc32)c2ccccc21 [fluorescein]
- apparent Stern-Volmer quenching constant KSV: 26,300 M^−1
